# Reference: publication PMC4764323
# By UniProt entry, the sequences of proteins in these tests, tags left out. Residues count along the entry.
# UniProt P22607, residues 23-806: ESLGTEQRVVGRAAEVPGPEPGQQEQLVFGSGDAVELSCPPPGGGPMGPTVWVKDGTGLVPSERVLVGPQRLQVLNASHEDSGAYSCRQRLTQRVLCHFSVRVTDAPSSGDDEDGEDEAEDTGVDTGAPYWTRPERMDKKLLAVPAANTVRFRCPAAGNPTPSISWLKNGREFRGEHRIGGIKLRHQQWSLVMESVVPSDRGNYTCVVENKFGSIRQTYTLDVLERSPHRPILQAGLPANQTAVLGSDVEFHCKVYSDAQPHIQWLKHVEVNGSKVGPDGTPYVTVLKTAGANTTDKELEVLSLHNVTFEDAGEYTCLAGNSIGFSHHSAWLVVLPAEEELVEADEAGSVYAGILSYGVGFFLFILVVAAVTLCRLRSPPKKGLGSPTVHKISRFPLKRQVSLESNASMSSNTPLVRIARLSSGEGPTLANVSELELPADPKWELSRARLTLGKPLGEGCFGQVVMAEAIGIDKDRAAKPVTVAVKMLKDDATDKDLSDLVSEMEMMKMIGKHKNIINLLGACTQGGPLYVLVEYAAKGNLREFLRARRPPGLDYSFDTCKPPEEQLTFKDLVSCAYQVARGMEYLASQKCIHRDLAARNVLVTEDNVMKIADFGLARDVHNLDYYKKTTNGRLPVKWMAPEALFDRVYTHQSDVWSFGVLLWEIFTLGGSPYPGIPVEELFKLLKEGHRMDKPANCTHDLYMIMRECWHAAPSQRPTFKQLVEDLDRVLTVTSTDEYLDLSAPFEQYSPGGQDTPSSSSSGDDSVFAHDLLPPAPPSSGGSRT
# These are yes or no findings as the source states them, for the method shown. In cells and extracts the contact can be indirect. Some entries that bind do so weakly or less than the wild type.
# Biological target: FLAG-tagged FGFR3 on transfected 293T cells (UniProt P22607)
# Assay: co-IP; culture medium of 293T cells transfected with leg1a or leg1a^N70A plasmid incubated with 293T cells expressing FLAG-FGFR3 at 4°C for one hour; cells washed with PBS, lysed in NP40 buffer; IP with anti-FLAG antibody, Leg1 detected with the Leg1 antibody
row,binding,Binder
1,binds,"Leg1a (liver-enriched gene 1a protein), secreted from transfected 293T cells (protein, UniProt A5PF61 23-364, N-glycosylation at N70) AVVTENGLPIQWGKAPSDLSHLPISDTGVQVNPWDYSQRMTMYKMLINATNAYMSSMGPGEQENPLWSLPLQLGWKLKSGRLADPTLDSSSTCGSEASDPVCISPLSWFACVNYYLSVLPFLAAVETGVVSSGGHQVLIQVPAEVAQDYCSSYSDCSTKHPNAMAKWHLFFQSLRQVSQSEDSDFNKKDSILGLMWAAEEESLQTASGACTERQKLYSSPEVSFQQSWLNSAAFVSAAHFHANIERSEKFMAPLPSRVLQEADSPPNIADLSTEENHTLYIFGWMNSVNQLLGGSLVNLWRKAMCSAQAREKGQALLHDLILDPKFPGSSLWSILSEMSTSC"
2,no binding,"Leg1a^N70A, secreted from transfected 293T cells (protein, UniProt A5PF61 23-364) AVVTENGLPIQWGKAPSDLSHLPISDTGVQVNPWDYSQRMTMYKMLIAATNAYMSSMGPGEQENPLWSLPLQLGWKLKSGRLADPTLDSSSTCGSEASDPVCISPLSWFACVNYYLSVLPFLAAVETGVVSSGGHQVLIQVPAEVAQDYCSSYSDCSTKHPNAMAKWHLFFQSLRQVSQSEDSDFNKKDSILGLMWAAEEESLQTASGACTERQKLYSSPEVSFQQSWLNSAAFVSAAHFHANIERSEKFMAPLPSRVLQEADSPPNIADLSTEENHTLYIFGWMNSVNQLLGGSLVNLWRKAMCSAQAREKGQALLHDLILDPKFPGSSLWSILSEMSTSC"
